Test results reported in the RNAGym collection of RNA variant scans (doi:10.1126/science.aae0568).
Variants at the floor of the assay are shown more often than the library holds them.

B1: tRNA (parent)
chain: GUUCCGUUGGCGUAAUGGUAACGCGUCUCCCUCCUAAGGAGAAGACUGCGGGUUCGAGUCCCGUACGGAACG

Variants of: B1
Assay: yeast fitness relative to wild type (ratio to wild type); higher = fitter; tRNA-Arg(CCU), competitive growth, 37 C, YPD
Outline: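 Amplicons of the tRNA-Arg(CCU) gene were sequenced, 100-nucleotide paired-end, from the start population and from each end population of a pooled yeast competition. The competition, in six parallel replicates, lasted 24 hours in YPD at 37°C. Fitness relative to wild type was calculated from changes in genotype frequencies. Genotypes had to have ≥ 100 starting reads, and estimates < 0.5 were set to 0.5.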
For U3G C11U U19C A20U A42C G63A A65C A69U, the yeast fitness was at most 0.5.
For U3A A40C G67C, the yeast fitness was at most 0.5.
Variant A42G C55G has a yeast fitness of 0.669.
C4G G17C G39C G50A U59G C61A C62U gave a yeast fitness of at most 0.5.
For A20U G23C U35G, the yeast fitness was 0.643.
With C4G C5G C29A C34U A42U G50C G67A the yeast fitness was at most 0.5.
Variant C5A A20G C29A G51C G67C has a yeast fitness of at most 0.5.
For A40C A42U C61G, the yeast fitness was at most 0.5.
C24A A70U gave a yeast fitness of 0.596.
Variant U8C U26G C33G U35A C62A has a yeast fitness of at most 0.5.
A42U G50A C60G showed a yeast fitness of 0.614.
C11U C22G C29G gave a yeast fitness of at most 0.5.
C29U C33A G38A showed a yeast fitness of at most 0.5.
Work on U2C C24U C31U C34U A36C G39A G41C yielded a yeast fitness of at most 0.5.
U7G U35A C49G C60A gave a yeast fitness of at most 0.5.
U2C G18A C24U showed a yeast fitness of 0.529.
G10A A20G C22A C30G A45U C60U gave a yeast fitness of at most 0.5.
In the case of G10C C27G C46G A65G, the yeast fitness is reported as at most 0.5.
For U7G U13A G25C A65G, the yeast fitness was at most 0.5.
Variant C4A A20G A45U C46G C60A has a yeast fitness of at most 0.5.
Work on U64A G68U yielded a yeast fitness of 0.728.
With C31A G52C U64C the yeast fitness was at most 0.5.
In the case of G6A A15C A20U C27U, the yeast fitness is reported as at most 0.5.
Work on C4G G41C U47A A57G yielded a yeast fitness of at most 0.5.
For A14G G23C A70U, the yeast fitness was 0.564.
U26C A37G C55A gave a yeast fitness of at most 0.5.
With C11U G23C G41A C62A the yeast fitness was at most 0.5.
U3A G12A A20C C29G gave a yeast fitness of at most 0.5.
With G9A C29A A36U the yeast fitness was at most 0.5.
Work on A40C A57G C61U yielded a yeast fitness of 0.573.
Variant U16C C29G C60G has a yeast fitness of at most 0.5.
G12C A15C C24U gave a yeast fitness of at most 0.5.
With U3A A21U C60G the yeast fitness was at most 0.5.
A20U U53C A57C A65U showed a yeast fitness of at most 0.5.
With U2C C24G C30U A40G G44A U47C G51C the yeast fitness was at most 0.5.
In the case of C4A G17A C46G A65G, the yeast fitness is reported as at most 0.5.
With U3G C5U G10A C55U the yeast fitness was at most 0.5.
U26C C31A G41A showed a yeast fitness of at most 0.5.
G10C A15C C27G C30A U59C gave a yeast fitness of at most 0.5.
A20U C29U A37U U64A gave a yeast fitness of at most 0.5.
C5U G10A A20C G41A C46G G48A U54C C55U showed a yeast fitness of at most 0.5.
G17C C24U C49U U59A showed a yeast fitness of 0.533.
In the case of C22U C31G C49U A65G, the yeast fitness is reported as at most 0.5.
C24U C33U C34G A40U showed a yeast fitness of at most 0.5.
A15C A36G C46A C61A gave a yeast fitness of at most 0.5.
Variant C29G G63A has a yeast fitness of 0.646.
Variant U2G G9C G10A A65C has a yeast fitness of at most 0.5.
In the case of C11A C27G C31G A36C G63C, the yeast fitness is reported as at most 0.5.
For C4A C31G A40G A45G C46G G48A, the yeast fitness was at most 0.5.
Variant A20C C27U G67C A69U has a yeast fitness of at most 0.5.
A20G C24A C27A C30U A69C showed a yeast fitness of at most 0.5.
Variant U7A A40U A45G C46U has a yeast fitness of at most 0.5.
U32C C34U A45U showed a yeast fitness of 0.662.
C4U A14U A36U G56A gave a yeast fitness of at most 0.5.
Variant C5A C24A has a yeast fitness of 0.727.
With C5U C11A A14C C33G the yeast fitness was at most 0.5.
G38C G51A A57U gave a yeast fitness of at most 0.5.
Variant U13G C33U G41C C66A has a yeast fitness of at most 0.5.
Work on A14U U19A G39A G67U yielded a yeast fitness of at most 0.5.
Work on C27G C49U C62A A69C yielded a yeast fitness of at most 0.5.
For C4U C11G G18C U47A G63A, the yeast fitness was at most 0.5.
With U2A C24U C31G G44A the yeast fitness was at most 0.5.
Work on C29A A57G A65C yielded a yeast fitness of at most 0.5.
Work on C30U G38C C55U U59A yielded a yeast fitness of at most 0.5.
For U2A U32C A36G, the yeast fitness was 0.736.
Work on G18A A57U G58C yielded a yeast fitness of at most 0.5.
C5U U13A C29G C31A C61G A69C gave a yeast fitness of at most 0.5.
U7A G51A G58C G68A gave a yeast fitness of at most 0.5.
For C4U C27G C60G A70C, the yeast fitness was at most 0.5.
Variant U2A C24G A43U C46U has a yeast fitness of 0.542.
A21G G67A showed a yeast fitness of 0.956.
Variant A14U C29U has a yeast fitness of 0.64.
In the case of U26A A43G A69C, the yeast fitness is reported as 0.649.
A20U C22G U32C gave a yeast fitness of at most 0.5.
Work on C24U G48A G51A yielded a yeast fitness of 0.665.
With G18C C24U C34U A40G C55G A65G the yeast fitness was at most 0.5.
Variant A15C G25C C29U U35C A43U has a yeast fitness of at most 0.5.
C4U A14G A40U showed a yeast fitness of 0.593.
C24G U35G C62U gave a yeast fitness of at most 0.5.
In the case of C34G A43U G48C, the yeast fitness is reported as at most 0.5.
In the case of A15G C29G C31A, the yeast fitness is reported as at most 0.5.
Variant C33U C61G has a yeast fitness of at most 0.5.
C29U C46G A57C C62U gave a yeast fitness of at most 0.5.
In the case of C11U A20U G39A A70U, the yeast fitness is reported as at most 0.5.
For C22G C24U A37C U59A, the yeast fitness was at most 0.5.
Variant G12C C29U has a yeast fitness of 0.85.
In the case of G9A A40U, the yeast fitness is reported as 1.06.
With A42G U59A the yeast fitness was 0.939.
For U16G A21C A43U, the yeast fitness was at most 0.5.
For G39C C49G A65G, the yeast fitness was at most 0.5.
U2C C29U U35A A70C showed a yeast fitness of at most 0.5.
C22U A37G A45U G52A G68A showed a yeast fitness of at most 0.5.
Variant A14C A20G C22U C49G G56C G67A has a yeast fitness of at most 0.5.
With A45C C49G G58C the yeast fitness was at most 0.5.
A14C C30G C33U C49U gave a yeast fitness of at most 0.5.
With U3A C4A C24G C29A G50C A57C the yeast fitness was at most 0.5.
Work on U3G C24U C49A C62U yielded a yeast fitness of at most 0.5.
Variant U8A A40C G44A has a yeast fitness of at most 0.5.
Variant G50C U59G C62U G68A has a yeast fitness of at most 0.5.
For A43C U47A, the yeast fitness was 0.732.
G63C G67C A69U showed a yeast fitness of at most 0.5.
U3C A45G U54A C61U showed a yeast fitness of at most 0.5.
Work on G12C A42G A70U yielded a yeast fitness of 0.592.
With C31U G51A G52C C60A the yeast fitness was at most 0.5.
Variant U3G G18A C30G G41U C49G C61G has a yeast fitness of at most 0.5.
U2G A14C C62G C66G gave a yeast fitness of at most 0.5.
For U16C C24U C34A A70C, the yeast fitness was at most 0.5.
Work on U13A A42U C66U yielded a yeast fitness of 0.704.
Work on U3A C5U C29A yielded a yeast fitness of at most 0.5.
In the case of C22G C29A A42C G63C, the yeast fitness is reported as at most 0.5.
Variant G10A A20G U26C G39A has a yeast fitness of at most 0.5.
For C11U A14G A45U G63C, the yeast fitness was at most 0.5.
Work on A57C C62U yielded a yeast fitness of 0.565.
A40G U64C C66A showed a yeast fitness of at most 0.5.
Variant G12A U32C A37U U54A has a yeast fitness of at most 0.5.
With U16G U28C the yeast fitness was 0.862.
In the case of U3G C22A G50A, the yeast fitness is reported as at most 0.5.
Work on U19A C22G A45U C49U U64A yielded a yeast fitness of at most 0.5.
Variant G9C A14G A65U C66A has a yeast fitness of at most 0.5.
In the case of G9A G51A C60U G67A, the yeast fitness is reported as 0.588.
U32C C55U A69C gave a yeast fitness of 0.63.
In the case of U16G G23A A40U U64C, the yeast fitness is reported as at most 0.5.
In the case of U19G U64G C66A, the yeast fitness is reported as at most 0.5.
For A15U A43U A69C, the yeast fitness was 0.697.
Variant C46G C49A U54C G58C has a yeast fitness of at most 0.5.
For A14U A20C C24G C55U A69C, the yeast fitness was at most 0.5.
Work on A14U C29A C66U yielded a yeast fitness of at most 0.5.
For U26C A45G, the yeast fitness was 0.966.
In the case of U8A C27A A37U A57U, the yeast fitness is reported as at most 0.5.
Variant C5U A40C C62A A65U has a yeast fitness of at most 0.5.
Variant C5U C22G C29A A45U A70C has a yeast fitness of at most 0.5.
Work on C5U G17C C29A C46G U53C C55G yielded a yeast fitness of at most 0.5.
Work on U2A A43C C49U yielded a yeast fitness of 0.602.
C4U G63C showed a yeast fitness of 0.782.
Work on G18C U19A A36U C66U yielded a yeast fitness of at most 0.5.
C31G C34G A43U G68C A69G gave a yeast fitness of at most 0.5.
For G9C C31U U47A A57C A69C, the yeast fitness was at most 0.5.
G6C U7C A14U A15C U26C G48A G63A A69C showed a yeast fitness of at most 0.5.
G6C A15G C22A C29G A37C G50C C66U showed a yeast fitness of at most 0.5.
C34U C61A showed a yeast fitness of 0.563.
G9A G12C G17A C22G C30G G51C A57U gave a yeast fitness of at most 0.5.
Work on G17A C31U G48C C55G A69U yielded a yeast fitness of at most 0.5.
For A14U G44C G50A, the yeast fitness was at most 0.5.
With U28A C55G A69U the yeast fitness was at most 0.5.
G17C C27U C34U A42U A69U showed a yeast fitness of at most 0.5.
Work on A20G G23C G50A yielded a yeast fitness of at most 0.5.
For U2A A43C U53A A70G, the yeast fitness was at most 0.5.
In the case of C5A U28C A37C G56A U59C, the yeast fitness is reported as at most 0.5.
C5G A20U C29G showed a yeast fitness of at most 0.5.
With C5U C24U U28C A42C A57U the yeast fitness was at most 0.5.
G48A G50A U54A showed a yeast fitness of 0.597.
Work on C5U C11U G51C G52A G56C yielded a yeast fitness of at most 0.5.
G9A C22U C62A gave a yeast fitness of at most 0.5.
With G12C C29U G44A G51A G56A G63C the yeast fitness was at most 0.5.
With C4G C11G C49U C60U the yeast fitness was at most 0.5.
U35G showed a yeast fitness of 0.676.
C4U G23C G51A A69G showed a yeast fitness of 0.586.
Work on C11A U19G A36G U54C yielded a yeast fitness of at most 0.5.
For C5U C33U G63C, the yeast fitness was at most 0.5.
Variant U3G C31G A37G C62U G63C has a yeast fitness of at most 0.5.
Variant U13C C22A has a yeast fitness of 0.791.
C30U G50C C55A C60A gave a yeast fitness of at most 0.5.
Work on G6A G12C G17C G51A yielded a yeast fitness of at most 0.5.
Variant C33U C34G A40G has a yeast fitness of 0.625.
With C61G C66U A69U the yeast fitness was at most 0.5.
With U19C U53A U59C the yeast fitness was at most 0.5.
With A15U C34G A37G A40C U59C the yeast fitness was at most 0.5.
